Values from PubChem BioAssay AID743454 (Peter MacCallum Cancer Centre, 2014)
Assay: 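Genes whose loss kills vorinostat-resistant colon cancer cells under vorinostat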 (primary screen). Cells: human HCT116-VR colon cancer cells, selected for vorinostat resistance. Reagent: siRNA pool against human genes, 40 nM siRNA pool. Timing: vorinostat for 24 h, read-out about 72 h after transfection. Conditions: vorinostat at 2.5 µM final. Detection: 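Two measures, CellTiter-Fluor viability and luminescent caspase 3/7 activity, each as fold change against same-plate mock wells, mean of duplicates, then screen-wide robust z-score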. Reading the numbers: viability robust z-score: higher = more viable cells than screen typical; caspase robust z-score: higher = more caspase 3/7 activity than screen typical. Rule for the call: 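a knock-down is a hit when classed RV1 or RV2 for lowered viability, or CA1 or CA2 for caspase activation; those lethal without drug were dropped; hits were retested singly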.
This is an unselected part of about 18,000 deposited reagents. 450 of them (2.5%) were called active. 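Single biological run; no consistent viability z cut-off exists, so the class columns, not z-scores, define the calls.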 Unmarked entries are inactive.

gene symbol	viability hit class	caspase hit class	viability robust z-score	caspase robust z-score
PITHD1	no change	no change	-0.56	0
BCHE	no change	no change	1.93	0.13
ADAM21	no change	no change	0.3	0.95
TAS2R46	no change	no change	-1.6	-0.49
ZFP91	no change	no change	-0.63	-0.38
DNAAF8	no change	no change	0.08	-0.77
LINC02875	no change	no change	1.62	0.28
NLN	no change	no change	-1.33	3.66
HEXB	no change	no change	0.8	0.46
SV2B	no change	no change	0.46	-0.55
ANXA8L1	no change	no change	0.87	-0.15
POGZ	no change	no change	-1.27	-0.3
TYRP1	no change	no change	1.3	0.12
ADCY3	no change	no change	0.18	-0.88
REPS1	no change	no change	0.49	0.69
TUBAL3	no change	no change	0.58	-0.96
FKBP7	no change	no change	-0.06	1.71
PXK	no change	no change	0.7	0.01
HSPA13	no change	no change	-0.96	0.12
GART	no change	no change	-1.89	1.36
STK10	no change	no change	0.34	0.66
TCN1	no change	no change	-0.15	0.18
THAP10	no change	no change	0.96	-1.32
ENOPH1	no change	no change	1.33	-0.02
SLC43A3	no change	no change	0.2	-0.44
EMSY	no change	no change	-0.02	-1.17
ALPG	no change	no change	-1.15	-0.62
MTMR11	no change	no change	-0.7	-0.43
MRPL40	no change	no change	1.48	0.36
ACSF2	no change	no change	-0.54	-1
ZNF501	no change	no change	-0.84	-1.09
SLC9A9	no change	no change	-0.04	-0.62
IDO1	no change	no change	0.06	-0.56
SNX31	no change	no change	-0.73	1.92
CASP2	no change	no change	0.6	-0.88
SLC25A1	no change	no change	0.97	2.77
HSF2	no change	no change	1.02	1.86
ZNF761	no change	no change	-0.88	-1.02
MATCAP2	no change	no change	0.2	-0.3
PRKDC	no change	no change	-0.11	1.27
DBX1	no change (active)	CA2 (caspase activation)	-2.65	5.91
UBE2NL	no change	no change	-1.27	-1.1
NAB2	no change	no change	-0.91	-0.44
TEKT5	no change	no change	0.1	-0.29
EN1	no change	no change	0.54	-0.53
CCDC158	no change	no change	-1.06	0.06
DVL2	no change	no change	-0.86	-0.59
GIMAP7	no change	no change	-1.7	0.4
UPP1	no change	no change	-0.11	-0.56
NPY	no change	no change	0.46	-0.24
PEX2	no change	no change	-0.9	1.47
MICB	no change	no change	-0.34	2.4
UROS	no change	no change	-0.25	-0.67
ZC3HAV1	no change	no change	0.48	-0.42
FBXL8	no change	no change	0.81	0.1
RCOR1	no change	no change	-0.82	-0.36
AJM1	no change	no change	1.19	-0.74

Look-ups from the entries so far:
ZC3HAV1, viability hit class: no change
For “caspase robust z-score”, TEKT5 shows -0.29
Result for FKBP7 under “caspase robust z-score”: 1.71
Entry for ZNF761 in “caspase robust z-score”: -1.02
Under “viability robust z-score”, MATCAP2 reads 0.2
